The values that follow come from article PMC10852281.

Residue numbers refer to the chain shown, from its start. No constants are given. Whether binding was seen depends on the method and setting. In cells and extracts the contact can be indirect. Some entries that bind do so weakly or less than the wild type. For some of these results: Where a sequence is shown, tags or fusion partners need not be part of it.

One experiment has as its target T1, HA-TXNIP-C247S (UniProt Q9H3M7).
T1 sequence: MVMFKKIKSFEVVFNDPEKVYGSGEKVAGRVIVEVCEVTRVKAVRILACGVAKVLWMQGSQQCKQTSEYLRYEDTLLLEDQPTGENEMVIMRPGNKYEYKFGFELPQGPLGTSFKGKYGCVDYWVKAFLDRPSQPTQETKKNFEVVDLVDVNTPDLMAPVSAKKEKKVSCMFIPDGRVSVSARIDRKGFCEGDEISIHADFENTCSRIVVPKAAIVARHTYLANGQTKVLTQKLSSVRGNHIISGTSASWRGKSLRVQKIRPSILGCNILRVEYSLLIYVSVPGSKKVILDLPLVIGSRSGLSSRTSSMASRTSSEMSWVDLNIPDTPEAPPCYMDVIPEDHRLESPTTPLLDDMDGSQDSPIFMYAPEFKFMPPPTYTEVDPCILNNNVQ
Briefly: co-IP; HEK293T cells transfected; HA-IP of HA-TXNIP constructs overnight at 4°C, protein A/G resin, washed 3 times with lysis buffer ('1% NP40 lysis buffer': 20 mM Tris7.5, 150 mM NaCl, 1% SDS, 1% deoxycholate); Western blot; in Fig 6I-J cells treated with H2O2 (30 μM, 300 μM, 1.5 mM) or NAC (2.5 μM, 5 μM, 10 μM) for 4 hrs. (In western blotting, separated proteins are transferred to a membrane and probed.)

Experiment [1] concerns the target T2, HA-TXNIP (thioredoxin-interacting protein, wild type) (UniProt Q9H3M7).
T2 sequence: T1 sequence with S247C
The experiment is described as above.

Experiment [2] deals with T3, HA-TXNIP (thioredoxin-interacting protein, wild type), Q9H3M7.
T3 chain: T1 sequence with S247C
Described as above. To be noted: remark: other sources report otherwise.

Experiment [3] has as its target T4, TXNIP-VN (BiFC fusion), Q9H3M7.
T4 chain: T1 sequence with S247C
The experiment in a line: split reporter; BiFC; HeLa cells co-expressing VN and VC fusions, green fluorescent signal by confocal microscopy, cells fixed with 4% PFA. To be noted: remark: other sources report otherwise.

For experiment [4], the target named is T5, TXNIP (construct not told; SiMPull assay and the tests of Fig 2B / S2B Fig), Q9H3M7.
T5 chain: T1 sequence with S247C
The experiment in a line: single-molecule pull-down (SiMPull); protein complexes from lysed cells immobilised onto a coverslip, analysed with a total internal reflection fluorescence microscope. To be noted: remark: other sources report otherwise.

A further experiment deals with TXNIP-VN (BiFC fusion) (UniProt Q9H3M7). Briefly: split reporter; BiFC; HeLa cells co-expressing VN and VC fusions, green fluorescent signal by confocal microscopy, cells fixed with 4% PFA.

“GLUT1 (no tag named) (from UniProt P11166 1-492)”: the binding result with HA-TXNIP-C247S is on record as “binds”.

B1: GLUT4-GFP (protein, UniProt P14672 1-509)
chain: MPSGFQQIGSEDGEPPQQRVTGTLVLAVFSAVLGSLQFGYNIGVINAPQKVIEQSYNETWLGRQGPEGPSSIPPGTLTTLWALSVAIFSVGGMISSFLIGIISQWLGRKRAMLVNNVLAVLGGSLMGLANAAASYEMLILGRFLIGAYSGLTSGLVPMYVGEIAPTHLRGALGTLNQLAIVIGILIAQVLGLESLLGTASLWPLLLGLTVLPALLQLVLLPFCPESPRYLYIIQNLEGPARKSLKRLTGWADVSGVLAELKDEKRKLERERPLSLLQLLGSRTHRQPLIIAVVLQLSQQLSGINAVFYYSTSIFETAGVGQPAYATIGAGVVNTVFTLVSVLLVERAGRRTLHLLGLAGMCGCAILMTVALLLLERVPAMSYVSIVAIFGFVAFFEIGPGPIPWFIVAELFSQGPRPAAMAVAGFSNWTSNFIIGMGFQYVAEAMGPYVFLLFAVLLLGFFIFTFLRVPETRGRTFDQISAAFHRTPSLLEQEVKPSTELEYLGPDEND
Regarding B1, the binding result in experiment [1] is on record as “binds”.

B2: GLUT1-GFP, P11166 1-492 (protein)
chain: MEPSSKKLTGRLMLAVGGAVLGSLQFGYNTGVINAPQKVIEEFYNQTWVHRYGESILPTTLTTLWSLSVAIFSVGGMIGSFSVGLFVNRFGRRNSMLMMNLLAFVSAVLMGFSKLGKSFEMLILGRFIIGVYCGLTTGFVPMYVGEVSPTALRGALGTLHQLGIVVGILIAQVFGLDSIMGNKDLWPLLLSIIFIPALLQCIVLPFCPESPRFLLINRNEENRAKSVLKKLRGTADVTHDLQEMKEESRQMMREKKVTILELFRSPAYRQPILIAVVLQLSQQLSGINAVFYYSTSIFEKAGVQQPVYATIGSGIVNTAFTVVSLFVVERAGRRTLHLIGLAGMAGCAILMTIALALLEQLPWMSYLSIVAIFGFVAFFEVGPGPIPWFIVAELFSQGPRPAAIAVAGFSNWTSNFIVGMCFQYVEQLCGPYVFIIFTVLLVLFFIFTYFKVPETKGRTFDEIASGFRQGGASQSDKTPEELFHPLGADSQV
B2: the binding entry in experiment [2] is “binds”.

B3: GLUT1-VC (BiFC fusion), P11166 1-492 (protein)
chain: B2 chain
Regarding B3, in experiment [3], the binding result is recorded as “binds”.

B4: GLUT1 (construct not told; SiMPull assay), P11166 1-492 (protein)
chain: B2 chain
As for B4, in experiment [4], the binding entry is “binds”.

B5: GLUT3-GFP (protein, UniProt P11169 1-496)
chain: MGTQKVTPALIFAITVATIGSFQFGYNTGVINAPEKIIKEFINKTLTDKGNAPPSEVLLTSLWSLSVAIFSVGGMIGSFSVGLFVNRFGRRNSMLIVNLLAVTGGCFMGLCKVAKSVEMLILGRLVIGLFCGLCTGFVPMYIGEISPTALRGAFGTLNQLGIVVGILVAQIFGLEFILGSEELWPLLLGFTILPAILQSAALPFCPESPRFLLINRKEEENAKQILQRLWGTQDVSQDIQEMKDESARMSQEKQVTVLELFRVSSYRQPIIISIVLQLSQQLSGINAVFYYSTGIFKDAGVQEPIYATIGAGVVNTIFTVVSLFLVERAGRRTLHMIGLGGMAFCSTLMTVSLLLKDNYNGMSFVCIGAILVFVAFFEIGPGPIPWFIVAELFSQGPRPAAMAVAGCSNWTSNFLVGLLFPSAAHYLGAYVFIIFTGFLITFLAFTFFKVPETRGRTFEDITRAFEGQAHGADRSGKDGVMEMNSIEPAKETTTNV
For B5, the binding result in experiment [1] was “binds”.

B6: TXNIP-VN (BiFC fusion) (protein, UniProt Q9H3M7 1-391)
chain: T1 sequence with S247C
Regarding B6, the binding entry with TXNIP-VN (BiFC fusion) is given as “binds”.
